Test results: the supplement of paper PMC10849652
This is one part of the list.

By UniProt entry, the sequences of proteins in these tests, tags left out. Where a name states a change or a piece, a line headed by the entry shows the natural chain unless it says otherwise.
UniProt Q7L3B6: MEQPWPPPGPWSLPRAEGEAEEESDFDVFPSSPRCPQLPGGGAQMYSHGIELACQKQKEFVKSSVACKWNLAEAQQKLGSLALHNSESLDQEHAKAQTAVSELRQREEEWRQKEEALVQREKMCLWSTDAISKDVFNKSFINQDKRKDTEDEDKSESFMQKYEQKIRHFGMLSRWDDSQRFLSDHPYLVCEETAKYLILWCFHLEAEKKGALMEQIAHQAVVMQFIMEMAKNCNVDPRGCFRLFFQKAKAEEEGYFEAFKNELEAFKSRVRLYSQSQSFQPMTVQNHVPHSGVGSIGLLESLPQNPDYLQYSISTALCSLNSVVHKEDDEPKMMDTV
UniProt O15182: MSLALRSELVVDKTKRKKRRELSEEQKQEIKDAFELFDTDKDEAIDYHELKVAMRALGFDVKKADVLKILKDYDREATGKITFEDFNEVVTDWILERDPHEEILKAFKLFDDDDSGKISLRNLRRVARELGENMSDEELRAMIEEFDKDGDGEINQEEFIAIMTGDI
UniProt O00748: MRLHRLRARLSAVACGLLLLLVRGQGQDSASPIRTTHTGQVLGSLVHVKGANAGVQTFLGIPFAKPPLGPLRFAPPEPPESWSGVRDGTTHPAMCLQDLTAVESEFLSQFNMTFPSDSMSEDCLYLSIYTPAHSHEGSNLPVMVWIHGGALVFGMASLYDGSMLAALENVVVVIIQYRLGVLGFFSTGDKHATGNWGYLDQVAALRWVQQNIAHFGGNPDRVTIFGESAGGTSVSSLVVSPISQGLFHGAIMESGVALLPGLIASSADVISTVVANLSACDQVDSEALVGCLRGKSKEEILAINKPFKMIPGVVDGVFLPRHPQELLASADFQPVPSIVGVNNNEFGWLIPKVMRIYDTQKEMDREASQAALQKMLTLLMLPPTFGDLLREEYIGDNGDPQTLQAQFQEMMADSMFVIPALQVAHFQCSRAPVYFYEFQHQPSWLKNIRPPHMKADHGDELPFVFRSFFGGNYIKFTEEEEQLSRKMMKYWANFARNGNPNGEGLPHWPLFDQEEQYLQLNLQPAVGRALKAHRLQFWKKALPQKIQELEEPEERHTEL
UniProt Q9Y5P4: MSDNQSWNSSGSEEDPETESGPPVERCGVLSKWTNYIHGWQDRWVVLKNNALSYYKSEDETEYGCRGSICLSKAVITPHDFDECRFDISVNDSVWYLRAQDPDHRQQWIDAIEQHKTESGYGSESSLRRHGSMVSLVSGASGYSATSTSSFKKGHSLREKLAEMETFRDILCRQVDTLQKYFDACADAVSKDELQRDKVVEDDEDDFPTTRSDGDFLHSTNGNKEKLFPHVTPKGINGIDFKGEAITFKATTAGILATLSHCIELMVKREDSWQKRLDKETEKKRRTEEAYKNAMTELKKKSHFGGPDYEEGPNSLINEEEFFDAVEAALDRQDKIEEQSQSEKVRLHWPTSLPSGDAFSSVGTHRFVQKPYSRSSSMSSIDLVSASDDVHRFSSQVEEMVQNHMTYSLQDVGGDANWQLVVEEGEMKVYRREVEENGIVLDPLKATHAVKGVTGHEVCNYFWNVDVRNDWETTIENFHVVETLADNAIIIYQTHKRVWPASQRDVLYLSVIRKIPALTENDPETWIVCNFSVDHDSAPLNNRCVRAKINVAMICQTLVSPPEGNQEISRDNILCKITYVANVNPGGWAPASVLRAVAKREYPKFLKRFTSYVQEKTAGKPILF
UniProt Q66GS9: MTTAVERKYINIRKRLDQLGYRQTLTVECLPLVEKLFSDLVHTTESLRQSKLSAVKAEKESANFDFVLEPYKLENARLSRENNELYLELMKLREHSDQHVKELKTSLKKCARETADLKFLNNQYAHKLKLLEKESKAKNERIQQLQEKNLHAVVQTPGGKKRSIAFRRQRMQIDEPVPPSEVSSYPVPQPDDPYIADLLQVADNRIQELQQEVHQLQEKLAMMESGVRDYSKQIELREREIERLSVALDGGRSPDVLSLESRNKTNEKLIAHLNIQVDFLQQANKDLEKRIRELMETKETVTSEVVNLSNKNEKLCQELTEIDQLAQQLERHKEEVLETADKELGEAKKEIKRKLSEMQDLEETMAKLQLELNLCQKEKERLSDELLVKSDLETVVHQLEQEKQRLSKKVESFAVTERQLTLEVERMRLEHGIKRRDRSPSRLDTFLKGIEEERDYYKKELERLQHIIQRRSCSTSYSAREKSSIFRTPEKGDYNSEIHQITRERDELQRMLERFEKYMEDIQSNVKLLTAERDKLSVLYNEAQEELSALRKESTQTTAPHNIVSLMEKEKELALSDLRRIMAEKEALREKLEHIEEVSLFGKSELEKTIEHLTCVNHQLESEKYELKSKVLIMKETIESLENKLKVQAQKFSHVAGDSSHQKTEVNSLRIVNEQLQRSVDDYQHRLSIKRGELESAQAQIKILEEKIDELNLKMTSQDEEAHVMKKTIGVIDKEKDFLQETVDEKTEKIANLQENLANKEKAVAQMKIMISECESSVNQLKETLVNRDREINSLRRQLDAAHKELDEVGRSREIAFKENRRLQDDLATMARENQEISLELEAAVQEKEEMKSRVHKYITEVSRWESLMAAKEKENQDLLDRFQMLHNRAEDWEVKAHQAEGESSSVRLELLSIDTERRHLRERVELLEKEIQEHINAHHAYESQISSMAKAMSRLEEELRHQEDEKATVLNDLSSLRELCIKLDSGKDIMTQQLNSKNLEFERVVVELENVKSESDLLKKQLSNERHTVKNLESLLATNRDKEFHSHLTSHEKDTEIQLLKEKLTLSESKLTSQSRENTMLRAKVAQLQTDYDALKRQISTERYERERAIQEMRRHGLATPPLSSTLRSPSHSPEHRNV
UniProt Q6ZU80: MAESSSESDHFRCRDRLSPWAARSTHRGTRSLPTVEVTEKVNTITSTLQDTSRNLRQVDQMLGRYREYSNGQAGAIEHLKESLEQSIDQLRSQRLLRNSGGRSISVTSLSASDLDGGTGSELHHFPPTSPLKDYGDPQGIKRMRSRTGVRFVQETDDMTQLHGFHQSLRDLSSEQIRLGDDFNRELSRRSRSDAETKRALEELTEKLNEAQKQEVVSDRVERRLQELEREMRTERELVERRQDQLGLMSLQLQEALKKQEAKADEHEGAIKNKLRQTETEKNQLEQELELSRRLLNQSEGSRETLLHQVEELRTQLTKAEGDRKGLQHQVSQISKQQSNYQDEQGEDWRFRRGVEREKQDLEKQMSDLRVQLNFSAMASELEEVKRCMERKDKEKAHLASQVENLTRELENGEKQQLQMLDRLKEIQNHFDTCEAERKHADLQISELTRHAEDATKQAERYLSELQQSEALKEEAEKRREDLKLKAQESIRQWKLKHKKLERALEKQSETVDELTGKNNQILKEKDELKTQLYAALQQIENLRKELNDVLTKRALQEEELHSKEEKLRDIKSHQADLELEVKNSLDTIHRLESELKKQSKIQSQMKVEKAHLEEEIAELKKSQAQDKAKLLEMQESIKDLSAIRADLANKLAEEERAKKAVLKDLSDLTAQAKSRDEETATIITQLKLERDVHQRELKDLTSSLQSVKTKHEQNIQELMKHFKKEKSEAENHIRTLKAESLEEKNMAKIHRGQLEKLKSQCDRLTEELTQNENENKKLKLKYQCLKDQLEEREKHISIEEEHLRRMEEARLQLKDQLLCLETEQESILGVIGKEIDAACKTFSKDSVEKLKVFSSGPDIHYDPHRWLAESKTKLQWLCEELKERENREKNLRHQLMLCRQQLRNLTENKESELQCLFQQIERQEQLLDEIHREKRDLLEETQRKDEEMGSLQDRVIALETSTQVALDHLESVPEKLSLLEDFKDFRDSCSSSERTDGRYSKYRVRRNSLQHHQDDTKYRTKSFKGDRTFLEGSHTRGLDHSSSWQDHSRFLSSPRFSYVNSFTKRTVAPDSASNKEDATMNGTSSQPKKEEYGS
UniProt Q9H3R5: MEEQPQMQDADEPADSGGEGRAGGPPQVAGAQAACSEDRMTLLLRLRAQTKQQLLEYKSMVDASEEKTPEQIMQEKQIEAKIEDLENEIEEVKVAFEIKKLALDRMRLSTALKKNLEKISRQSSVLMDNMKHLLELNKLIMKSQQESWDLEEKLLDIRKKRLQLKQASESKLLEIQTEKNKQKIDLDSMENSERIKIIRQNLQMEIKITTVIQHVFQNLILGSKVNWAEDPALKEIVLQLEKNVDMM
UniProt Q13042, whole entry, looked up: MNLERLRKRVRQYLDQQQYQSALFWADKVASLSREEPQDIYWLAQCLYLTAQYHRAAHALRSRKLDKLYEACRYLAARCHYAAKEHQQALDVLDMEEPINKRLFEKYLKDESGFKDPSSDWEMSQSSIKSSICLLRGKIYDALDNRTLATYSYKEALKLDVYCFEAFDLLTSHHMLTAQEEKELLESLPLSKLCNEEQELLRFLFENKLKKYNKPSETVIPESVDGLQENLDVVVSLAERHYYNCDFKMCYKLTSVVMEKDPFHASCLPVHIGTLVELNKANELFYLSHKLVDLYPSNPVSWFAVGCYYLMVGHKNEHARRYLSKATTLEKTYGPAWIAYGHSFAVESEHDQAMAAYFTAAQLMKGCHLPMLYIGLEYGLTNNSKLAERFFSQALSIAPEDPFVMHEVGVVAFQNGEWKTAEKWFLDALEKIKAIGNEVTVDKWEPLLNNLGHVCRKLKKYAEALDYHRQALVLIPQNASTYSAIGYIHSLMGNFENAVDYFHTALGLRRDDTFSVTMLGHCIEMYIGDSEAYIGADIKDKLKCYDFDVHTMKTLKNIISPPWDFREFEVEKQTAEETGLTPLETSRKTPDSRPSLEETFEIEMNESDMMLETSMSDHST
UniProt Q9H3Q1: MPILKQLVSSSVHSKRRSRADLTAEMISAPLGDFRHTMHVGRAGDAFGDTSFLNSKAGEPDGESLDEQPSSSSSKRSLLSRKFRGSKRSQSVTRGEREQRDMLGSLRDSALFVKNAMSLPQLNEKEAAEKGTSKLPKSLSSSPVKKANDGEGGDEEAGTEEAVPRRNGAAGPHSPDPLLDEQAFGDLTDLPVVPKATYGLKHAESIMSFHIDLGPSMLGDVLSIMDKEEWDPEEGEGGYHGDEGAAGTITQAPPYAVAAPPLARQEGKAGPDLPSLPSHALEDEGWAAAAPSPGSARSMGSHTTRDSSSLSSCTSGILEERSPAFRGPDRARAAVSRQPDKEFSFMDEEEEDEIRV
UniProt Q9C0F1: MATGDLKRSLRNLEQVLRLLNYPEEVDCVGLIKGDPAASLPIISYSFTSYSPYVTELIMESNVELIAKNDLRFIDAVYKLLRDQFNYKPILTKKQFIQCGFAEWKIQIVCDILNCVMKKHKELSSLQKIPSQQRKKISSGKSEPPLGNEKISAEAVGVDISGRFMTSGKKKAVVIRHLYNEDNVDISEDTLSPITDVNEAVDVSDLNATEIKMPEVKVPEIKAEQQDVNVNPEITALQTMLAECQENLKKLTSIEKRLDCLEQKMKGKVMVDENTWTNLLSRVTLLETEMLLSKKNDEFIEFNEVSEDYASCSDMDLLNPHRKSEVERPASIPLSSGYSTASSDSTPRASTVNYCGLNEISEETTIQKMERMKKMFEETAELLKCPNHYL
UniProt P21127: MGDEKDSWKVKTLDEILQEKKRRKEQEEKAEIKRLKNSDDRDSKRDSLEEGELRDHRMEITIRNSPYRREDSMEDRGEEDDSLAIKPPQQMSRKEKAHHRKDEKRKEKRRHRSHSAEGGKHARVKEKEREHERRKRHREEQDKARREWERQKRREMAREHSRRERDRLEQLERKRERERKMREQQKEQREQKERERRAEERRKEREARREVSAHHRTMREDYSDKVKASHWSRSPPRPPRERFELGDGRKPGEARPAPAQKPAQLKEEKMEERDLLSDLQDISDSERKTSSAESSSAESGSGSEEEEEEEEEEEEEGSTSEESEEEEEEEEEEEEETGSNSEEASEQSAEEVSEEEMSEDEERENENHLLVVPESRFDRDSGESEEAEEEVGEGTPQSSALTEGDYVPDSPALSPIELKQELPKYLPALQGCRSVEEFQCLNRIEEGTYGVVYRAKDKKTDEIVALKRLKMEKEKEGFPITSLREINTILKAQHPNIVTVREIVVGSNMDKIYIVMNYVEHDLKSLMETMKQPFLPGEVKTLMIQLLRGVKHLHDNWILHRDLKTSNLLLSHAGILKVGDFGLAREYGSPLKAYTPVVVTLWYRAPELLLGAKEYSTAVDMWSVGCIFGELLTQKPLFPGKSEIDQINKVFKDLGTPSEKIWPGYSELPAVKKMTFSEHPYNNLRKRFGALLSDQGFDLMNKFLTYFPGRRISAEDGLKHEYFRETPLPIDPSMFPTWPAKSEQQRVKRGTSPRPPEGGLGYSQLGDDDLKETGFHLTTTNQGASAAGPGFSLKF
UniProt O14735: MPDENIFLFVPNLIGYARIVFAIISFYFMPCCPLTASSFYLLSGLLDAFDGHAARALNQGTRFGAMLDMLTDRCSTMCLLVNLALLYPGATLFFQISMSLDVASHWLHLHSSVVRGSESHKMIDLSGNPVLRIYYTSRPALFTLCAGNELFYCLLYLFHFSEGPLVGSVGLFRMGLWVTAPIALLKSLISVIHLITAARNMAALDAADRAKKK

compound: CC1=C2C(=CC=C1)N=C(N(C2=O)C3=CC=CC=C3C)CN4C=NC5=C(N=CN=C54)N; experiment: log2 fold change, soluble protein after heating vs DMSO (PISA); higher = thermal stabilisation; K562 lysate, 10 uM; active = over 0.2 and 3.5 SD of the protein, either way, in both replicates (recomputed)
Procedure, shortened: (§1)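 A 30 min treatment with 10 μM compound was applied to crude K562 extract at 1 mg/mL protein in PBS pH 7.4 with 1 mM MgCl2. Heating for 3 min spanned 48°C-58°C, after which aliquots were pooled, adjusted to 0.5% NP-40 at 4°C and spun at 21,000xg for 90 min. TMTpro 16plex LC-MS/MS of the supernatant, with channel sums equalised, gave values recorded as log-two fold change in thermal stability against solvent controls, from duplicates.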

Row | Target | log2 fold change
1 | CDC37L1 (UniProt Q7L3B6) | inactive: -0.041
2 | CETN3 (UniProt O15182) | inactive: -0.006
3 | CES2 isoform 4 (UniProt O00748) | inactive: -0.089
4 | CERT isoform 3 (UniProt Q9Y5P4) | inactive: 0.025
5 | CEP135 (UniProt Q66GS9) | inactive: 0.008
6 | CDK5RAP1 (UniProt Q96SZ6) | inactive: 0.05
7 | CDR2L (UniProt Q86X02) | inactive: -0.153
8 | CDC45 isoform 3 (UniProt O75419) | inactive: 0
9 | CENPE (UniProt Q02224) | inactive: 0.059
10 | CENPQ (UniProt Q7L2Z9) | inactive: 0.038
11 | CEP350 (UniProt Q5VT06) | inactive: 0.007
12 | CEP128 (UniProt Q6ZU80) | inactive: -0.023
13 | CEP170 (UniProt Q5SW79) | inactive: 0.059
14 | CEP192 (UniProt Q8TEP8) | inactive: 0.018
15 | CENPH (UniProt Q9H3R5) | inactive: 0.061
16 | CERS2 (UniProt Q96G23) | inactive: -0.019
17 | CDC16 (UniProt Q13042) | inactive: 0.025
18 | CDAN1 (UniProt Q8IWY9) | inactive: 0.062
19 | CDK16 isoform 2 (UniProt Q00536) | inactive: -0.11

Row | Target | log2 fold change
20 | CEBPZ (UniProt Q03701) | inactive: -0.025
21 | CDC42EP4 (UniProt Q9H3Q1) | inactive: -0.098
22 | CELF2 isoform 3 (UniProt O95319) | inactive: 0.005
23 | CDC7 (UniProt O00311) | inactive: 0.019
24 | CDYL (UniProt Q9Y232) | inactive: -0.03
25 | CDK2AP2 (UniProt O75956) | inactive: 0.092
26 | CEP44 (UniProt Q9C0F1) | inactive: -0.069
27 | CDC123 (UniProt O75794) | inactive: -0.038
28 | CDC42BPB (UniProt Q9Y5S2) | inactive: 0.04
29 | CDK2AP1 (UniProt O14519) | inactive: -0.118
30 | CEP76 (UniProt Q8TAP6) | inactive: -0.043
31 | CDK6 (UniProt Q00534) | inactive: -0.011
32 | CDK17 isoform 2 (UniProt Q00537) | inactive: 0.109
33 | CDK5RAP2 (UniProt Q96SN8) | inactive: 0.041
34 | CDKN1B (UniProt P46527) | inactive: 0.146
35 | CDCA2 (UniProt Q69YH5) | inactive: 0.078
36 | CDC42EP1 (UniProt Q00587) | inactive: 0.077
37 | CDK11B (UniProt P21127) | inactive: 0.005
38 | CDIPT (UniProt O14735) | inactive: 0.027

compound: Cc1sc2c(c1C)C(c1ccc(Cl)cc1)=N[C@@H](CC(=O)OC(C)(C)C)c1nnc(C)n1-2; experiment: as above
Procedure, shortened: as §1

Row | Target | log2 fold change
39 | CDC37L1 (UniProt Q7L3B6) | inactive: -0.058
40 | CETN3 (UniProt O15182) | inactive: -0.013
41 | CES2 isoform 4 (UniProt O00748) | inactive: 0.093
42 | CERT isoform 3 (UniProt Q9Y5P4) | inactive: 0.015
43 | CEP135 (UniProt Q66GS9) | inactive: 0.012
44 | CDK5RAP1 (UniProt Q96SZ6) | inactive: -0.023
45 | CDR2L (UniProt Q86X02) | inactive: 0.093
46 | CDC45 isoform 3 (UniProt O75419) | inactive: -0.018
47 | CENPE (UniProt Q02224) | inactive: -0.01
48 | CENPQ (UniProt Q7L2Z9) | inactive: 0.021
49 | CEP350 (UniProt Q5VT06) | inactive: 0.009
50 | CEP128 (UniProt Q6ZU80) | inactive: -0.125
51 | CEP170 (UniProt Q5SW79) | inactive: 0
52 | CEP192 (UniProt Q8TEP8) | inactive: 0.04
53 | CENPH (UniProt Q9H3R5) | inactive: -0.049
54 | CERS2 (UniProt Q96G23) | inactive: 0.061
55 | CDC16 (UniProt Q13042) | inactive: 0.03
56 | CDAN1 (UniProt Q8IWY9) | inactive: 0.026
57 | CDK16 isoform 2 (UniProt Q00536) | inactive: -0.011

Row | Target | log2 fold change
58 | CEBPZ (UniProt Q03701) | inactive: 0.008
59 | CDC42EP4 (UniProt Q9H3Q1) | inactive: 0.004
60 | CELF2 isoform 3 (UniProt O95319) | inactive: 0.012
61 | CDC7 (UniProt O00311) | inactive: 0.003
62 | CDYL (UniProt Q9Y232) | inactive: 0.023
63 | CDK2AP2 (UniProt O75956) | inactive: 0.074
64 | CEP44 (UniProt Q9C0F1) | inactive: 0.019
65 | CDC123 (UniProt O75794) | inactive: 0.073
66 | CDC42BPB (UniProt Q9Y5S2) | inactive: -0.074
67 | CDK2AP1 (UniProt O14519) | inactive: -0.033
68 | CEP76 (UniProt Q8TAP6) | inactive: 0.002
69 | CDK6 (UniProt Q00534) | inactive: 0
70 | CDK17 isoform 2 (UniProt Q00537) | inactive: 0.072
71 | CDK5RAP2 (UniProt Q96SN8) | inactive: -0.026
72 | CDKN1B (UniProt P46527) | inactive: 0.101
73 | CDCA2 (UniProt Q69YH5) | inactive: -0.052
74 | CDC42EP1 (UniProt Q00587) | inactive: -0.104
75 | CDK11B (UniProt P21127) | inactive: 0.035
76 | CDIPT (UniProt O14735) | inactive: -0.048
